Measurements reported in PubChem BioAssay AID602196 (INSERM, 2012).
Shown is an unselected part of about 23,000 reagents. Of all reagents, 455 (2%) are marked active. 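Active includes both protection and sensitisation; some change values fall well beyond the stated -50 to +50 range.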 Entries without a mark were called inactive. Reagent sequences are not shown. Not given: the amount of reagent.

- Purpose: 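Knock-downs that protect lung cancer cells from cisplatin or sensitise them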
- Cell system: human A549 lung cancer cells
- Reagents: siRNA pair against human genes
- Timing: 48 h transfection before cisplatin; time from cisplatin to read-out not stated
- Challenge: cisplatin at a dose killing half of control-siRNA cells; exact dose and duration not given
- Read-out: 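Shift in cisplatin death relative to control siRNA, from -50 (all cells die) to +50 (no cells die); siRNAs harmful on their own scored 0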
- Direction: two-siRNA summed score (-2 to +2): higher = both siRNAs protect from cisplatin killing; -2 means both sensitise; mean protection from cisplatin (shift in death) and protection from cisplatin (shift in death), siRNA C and protection from cisplatin (shift in death), siRNA D: higher = protection from cisplatin killing
- Rule for the call: 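Each siRNA scores 0 if harmful alone by LDH or WST-1, otherwise +1 if it reduces and -1 if it increases cisplatin killing; a gene is active when both siRNAs agree (sum +2 or -2)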
- Calls: active = both siRNAs shift cisplatin killing the same way; inactive = no consistent shift, or siRNA harmful alone

no.	Target gene	PubChem SID	two-siRNA summed score (-2 to +2)	mean protection from cisplatin (shift in death) (%)	protection from cisplatin (shift in death), siRNA C (%)	protection from cisplatin (shift in death), siRNA D (%)
1	CLASP1 (cytoplasmic linker associated protein 1)	SID131512936	0	6	6.3	5.7
2	ADAM32 (ADAM metallopeptidase domain 32)	SID131509561	0	2.3	-3.2	7.7
3	FAR1 (fatty acyl-CoA reductase 1)	SID131505331	0	-3.3	-10.8	4.1
4	LOC389395	SID131513884	0	7.1	8.8	5.4
5	IER5L (immediate early response 5 like)	SID131517583	0	13.9	14.7	13.2
6	SPRR2A (small proline rich protein 2A)	SID131517283	0	12.9	7.5	18.3
7	EIF3D (eukaryotic translation initiation factor 3 subunit D)	SID131505248	0	-3.5	-6	-0.9
8	LINC01619 (long independently transcribed non-coding RNA 1619)	SID131515487	0	9.2	12.4	6.1
9	LINC00265 (long independently transcribed non-coding RNA 265)	SID131506712	0	-1.1	-1	-1.2
10	LOC442606	SID131522968	2 (active)	14.9	13.8	16.1
11	TMEM192 (transmembrane protein 192)	SID131521054	1	12.1	7.2	16.9
12	XIAP (X-linked inhibitor of apoptosis)	SID131506788	0	-1	-8.5	6.5
13	LGALS2 (galectin 2)	SID131522180	1	16.7	16	17.4
14	EGLN2 (egl-9 family hypoxia inducible factor 2)	SID131502168	-1	-4.8	-20.8	11.3
15	THUMPD2 (THUMP domain 2 tRNA and snRNA guanosine methyltransferase)	SID131517968	0	15.7	16.8	14.6
16	RPTOR (regulatory associated protein of MTOR complex 1)	SID131503923	0	-7.1	-15.2	0.9
17	LOC440622	SID131518050	0	16.2	9.2	23.2
18	LOC440982	SID131521022	1	11.9	14.3	9.5
19	PRRC2C (proline rich coiled-coil 2C)	SID131508395	0	1	4.4	-2.4
20	GLRX (glutaredoxin)	SID131502349	-1	-3.2	-23	16.6
21	S100A5 (S100 calcium binding protein A5)	SID131519155	1	3.1	-12.7	18.8
22	TESMIN (testis expressed metallothionein like protein)	SID131503632	0	-8.7	-6.1	-11.4
23	CSE1L (chromosome segregation 1 like)	SID131506517	0	-1.4	2.1	-4.8
24	STK39 (serine/threonine kinase 39)	SID131523221	2 (active)	28.3	34.4	22.2
25	H2BC12 (H2B clustered histone 12)	SID131510635	0	3.4	6.4	0.5
26	TBC1D12 (TBC1 domain family member 12)	SID131510944	0	3.8	10.5	-2.9
27	ADGRF4 (adhesion G protein-coupled receptor F4)	SID131520384	1	9.7	15.4	4
28	SPIN2A (spindlin family member 2A)	SID131503942	0	-7.1	-13.8	-0.3
29	CCDC80 (coiled-coil domain containing 80)	SID131519933	1	8	2.5	13.6
30	LOC442596	SID131513618	0	6.8	8.8	4.8
31	LOC440023	SID131522168	1	16.6	23.3	9.9
32	PRNT (prion locus lncRNA, testis expressed)	SID131511175	0	4.1	0.9	7.2
33	LOC387859	SID131514296	0	7.6	3.2	12
34	FLVCR1 (FLVCR choline and heme transporter 1)	SID131501303	-1	-10.7	-14.1	-7.2
35	GTF2B (general transcription factor IIB)	SID131501184	-1	-11.7	3.8	-27.1
36	TRAF3IP3 (TRAF3 interacting protein 3)	SID131505854	0	-2.5	-8.9	4
37	LTB4R2 (leukotriene B4 receptor 2)	SID131520882	1	11.4	16.2	6.7
38	STARD5 (StAR related lipid transfer domain containing 5)	SID131502394	-1	-2.7	16.3	-21.7
39	LOC388339	SID131522454	1	18.7	22	15.4
40	ACOX2 (acyl-CoA oxidase 2)	SID131521639	1	14.3	13.4	15.2
41	ZFP62 (ZFP62 zinc finger protein)	SID131519996	1	8.3	14.1	2.4
42	IL15 (interleukin 15)	SID131500765	-1	-16.3	-15.6	-17.1
43	STRN (striatin)	SID131505512	0	-3	-9.3	3.2
44	PCDH12 (protocadherin 12)	SID131513048	0	6.1	10.9	1.4
45	ITLN2 (intelectin 2)	SID131503925	0	-7.1	0.6	-14.8
46	SUV39H1 (SUV39H1 histone lysine methyltransferase)	SID131509677	0	2.4	6.8	-2
47	RBL2 (RB transcriptional corepressor like 2)	SID131515047	0	8.6	16.2	1
48	LINC00312 (long independently transcribed non-coding RNA 312)	SID131502261	-1	-4	12.7	-20.6
49	LINC00312 (long independently transcribed non-coding RNA 312)	SID131502289	-1	-3.7	12.7	-20
50	MCHR2 (melanin concentrating hormone receptor 2)	SID131511898	0	4.9	1.6	8.2
51	NTRK3 (neurotrophic receptor tyrosine kinase 3)	SID131517709	0	14.5	17.4	11.5
52	PABPC3 (poly(A) binding protein cytoplasmic 3)	SID131502004	-1	-6	13.5	-25.4
53	LOC399937	SID131512515	0	5.6	5.5	5.6
54	ERCC4 (ERCC excision repair 4, endonuclease catalytic subunit)	SID131508099	0	0.6	3	-1.7
55	LCE3E (late cornified envelope 3E)	SID131509162	0	1.9	3.3	0.4
56	PHYHD1 (phytanoyl-CoA dioxygenase domain containing 1)	SID131521962	1	15.6	20.3	10.9
57	TPPP (tubulin polymerization promoting protein)	SID131519236	1	4.1	17.7	-9.6

Entries listed above with an active call, once more:
Target gene	PubChem SID	two-siRNA summed score (-2 to +2)	mean protection from cisplatin (shift in death) (%)	protection from cisplatin (shift in death), siRNA C (%)	protection from cisplatin (shift in death), siRNA D (%)
LOC442606	SID131522968	2 (active)	14.9	13.8	16.1
STK39 (serine/threonine kinase 39)	SID131523221	2 (active)	28.3	34.4	22.2
